From PubChem BioAssay AID651640 (Broad Institute, 2012)
Hit rate of the full screen: of about 350,000 compounds, about 6,000 (1.7%) were called active. Inconclusive means that the source gave no clear call. Such entries were picked first, then a sample of the others. Cut-off read from the data, not from the text of the source: active = CPE inhibition above about 20% (passing the limit was not always enough); inconclusive = no clear call, values can overlap the other calls; tested in BHK-21 cells.

Test: protection of cells from dengue 2 killing – plate reader, single concentration, primary screen (AID 651640);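 note: 0% = median of neutral control wells and 100% = median of positive control wells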
Conditions: DENV2-infected cells, cytopathic effect rescue, at 9.99 µM, hits give high values
With `Cn1c(SCc2nc3ccccc3c(=O)[nH]2)nc2ccccc21` the CPE inhibition was inactive: -3.36%.
For `O=C(Nc1ccccc1)N1C[C@@H]2[C@H](c3ccccc31)[C@H](CO)N2Cc1cocn1`, the CPE inhibition was inconclusive: 30.2%.
In the case of `CC(=O)Nc1ccc(S(=O)(=O)NC(C)c2ccncc2)cc1` (centres undefined), the CPE inhibition is reported as inconclusive: 57.4%.
With `CNC[C@@H]1Oc2ccc(NC(=O)NC(C)C)cc2C(=O)N([C@H](C)CO)C[C@H]1C` the CPE inhibition was inactive: 17.5%.
For `CCC(=O)N(C)C[C@@H]1Oc2cc(C#CC(C)(C)O)ccc2S(=O)(=O)N([C@@H](C)CO)C[C@@H]1C`, the CPE inhibition was inconclusive: 39%.
For `COCCNC(=O)C(c1ccc(Cl)cc1)N(Cc1ccco1)C(=O)CCC(=O)Nc1ccccn1` (centres undefined), the CPE inhibition was inactive: 13.9%.
In the case of `CNC[C@H]1Oc2cc(-c3cccc(C(=O)N(C)C)c3)ccc2S(=O)(=O)N([C@@H](C)CO)C[C@H]1C`, the CPE inhibition is reported as inconclusive: 31.7%.
For `COc1ccc(S(=O)(=O)N[C@@H]2CC[C@@H](CCNC(=O)CN3CCOCC3)O[C@H]2CO)cc1`, the CPE inhibition was inconclusive: 35.2%.
In the case of `O=C(c1cccnc1)N1CC[C@@H]2[C@H]1c1cc(C#Cc3cccnc3)ccc1N[C@@H]2CO`, the CPE inhibition is reported as inactive: 4.48%.
With `C[C@@H]1CCCCO[C@@H](CN(C)C(=O)CCC(F)(F)F)[C@H](C)CN([C@@H](C)CO)C(=O)c2cc(NS(=O)(=O)c3ccccc3)ccc2O1` the CPE inhibition was inactive: 11.9%.
In the case of `COc1ccccc1CCn1cnc(-c2ccc(Cl)cc2)c1CC(C)C`, the CPE inhibition is reported as inconclusive: 26.3%.
In the case of `Cc1ccc(OCc2ccc(-c3ccccc3)cc2)c([N+](=O)[O-])n1`, the CPE inhibition is reported as active: 35.8%.
In the case of `C[C@@H]1CCCCO[C@@H](CN(C)CC2CC2)[C@@H](C)CN([C@H](C)CO)C(=O)c2cc(NC(=O)Nc3ccc(C(F)(F)F)cc3)ccc2O1`, the CPE inhibition is reported as inconclusive: 26.8%.
In the case of `COc1ccccc1CNC(=O)Cn1ccsc1=N`, the CPE inhibition is reported as inconclusive: 37.7%.
In the case of `CCCN(C)C[C@@H]1Oc2cc(C#CC3CCCC3)ccc2S(=O)(=O)N([C@H](C)CO)C[C@@H]1C`, the CPE inhibition is reported as inconclusive: 21.6%.
For `O=C(C[C@H]1CC[C@@H]2[C@H](COC[C@@H](O)CN2Cc2cccc(F)c2)O1)NCC1CCCCC1`, the CPE inhibition was inconclusive: 46.3%.
In the case of `C[C@@H]1CN([C@@H](C)CO)C(=O)c2cc(NS(C)(=O)=O)ccc2O[C@@H](C)CCCCO[C@@H]1CN(C)S(=O)(=O)c1cn(C)cn1`, the CPE inhibition is reported as inconclusive: 40.2%.
With `CO[C@H]1CN(C)C(=O)c2cc(NC(C)=O)ccc2OC[C@H](C)N(Cc2cc(F)ccc2F)C[C@@H]1C` the CPE inhibition was inconclusive: 43.4%.
With `O=C(NCc1ccc2c(c1)OCO2)C1CC(=O)N(CCc2ccc(Cl)cc2)C1` (centres undefined) the CPE inhibition was inconclusive: 37.8%.
With `O=C(COc1ccccc1)Nc1cc2c3c(c1)CC(=O)N3CCC2` the CPE inhibition was inconclusive: 25.1%.
In the case of `O=C(CNc1cccc(S(=O)(=O)N2CCOCC2)c1)Nc1cccc(Br)c1`, the CPE inhibition is reported as active: 27.2%.
In the case of `c1cncc(-c2nc3ccccn3c2Nc2ccc3c(c2)OCCO3)c1`, the CPE inhibition is reported as inconclusive: 22.3%.
With `CCCN(C)C[C@@H]1OCCCC[C@H](C)Oc2ccc(NC(=O)c3ccccc3)cc2C(=O)N([C@@H](C)CO)C[C@@H]1C` the CPE inhibition was inconclusive: 35.5%.
In the case of `CC(C)CC#Cc1ccc2c(c1)O[C@@H](CN(C)C(=O)c1ccccc1F)[C@H](C)CN([C@@H](C)CO)S2(=O)=O`, the CPE inhibition is reported as active: 39.4%.
With `Cc1nn(C(C)C(=O)NC2CCCCCC2)c(=O)c2nn(-c3ccccc3)c(C)c12` (centres undefined) the CPE inhibition was inconclusive: 38%.
With `COc1ccc(C(=O)C[n+]2cccc(Br)c2)cc1` the CPE inhibition was inconclusive: 24.3%.
In the case of `Cc1ccc(S(=O)(=O)N(C)C[C@@H]2OCCCC[C@H](C)Oc3ccc(NC(=O)c4ccncc4)cc3C(=O)N([C@H](C)CO)C[C@H]2C)cc1`, the CPE inhibition is reported as inactive: -0.935%.
In the case of `CCOC(=O)C1=C[C@@H](C(C)(C)C)N(S(=O)(=O)c2ccc(OC)cc2)[C@H]1c1ccccc1`, the CPE inhibition is reported as inconclusive: 27.3%.
For `C=CCCCCCCCCC(=O)N1CCN(c2cc3c(cc2F)c(=O)c(C(=O)O)cn3CC)CC1`, the CPE inhibition was inconclusive: 27%.
For `CCn1cc(C(=O)O)c(=O)c2cc(F)c(N3CCN(C(=S)NC(=O)c4ccc(Br)cc4)CC3)cc21`, the CPE inhibition was inactive: -4.79%.
In the case of `CC(C)NC(=O)N(C)C[C@@H]1OCCCC[C@H](C)Oc2ccc(NS(=O)(=O)c3ccccc3)cc2C(=O)N([C@H](C)CO)C[C@@H]1C`, the CPE inhibition is reported as inactive: -0.862%.
With `COc1ccc(C)cc1NC(=O)NNC(=O)C1CCC(C(C)(C)C)CC1` (centres undefined) the CPE inhibition was inactive: 2.11%.
For `Cc1noc(C)c1S(=O)(=O)Nc1ccc2c(c1)C(=O)N([C@H](C)CO)C[C@@H](C)[C@@H](CN(C)C(=O)NC1CCCCC1)OCCCC[C@H](C)O2`, the CPE inhibition was inactive: -1.41%.
In the case of `C[C@H](CO)N1C[C@H](C)[C@H](CN(C)CC2CCCC2)OCc2cn(nn2)CCCC1=O`, the CPE inhibition is reported as inconclusive: 23.9%.
With `COc1ccc(C#Cc2ccc([C@H]3[C@@H](CO)N4CCCCN(C(=O)c5ccncc5)C[C@H]34)cc2)cc1` the CPE inhibition was active: 47%.
With `CNC(=O)c1c(NC(=O)c2ccc(S(=O)(=O)N(C)c3ccccc3)cc2)sc2c1CCN(C(C)C)C2` the CPE inhibition was active: 96.1%.
In the case of `CCc1ccc(N(C(=O)c2csnn2)C(C(=O)NC2CCCC2)c2cccnc2)cc1` (centres undefined), the CPE inhibition is reported as inconclusive: 31%.
In the case of `O=C(CSc1cn(CCNC(=O)c2cccs2)c2ccccc12)NC1CCCCC1`, the CPE inhibition is reported as inconclusive: 50.3%.
With `COc1ccc2c3c(n(C)c2c1)[C@@H](CO)N(S(C)(=O)=O)CC31CCN(CC2CCCC2)CC1` the CPE inhibition was active: 56.3%.
In the case of `COc1ccc(CCNS(=O)(=O)c2ccc3c(c2)NC(=O)CS3)cc1OC`, the CPE inhibition is reported as inconclusive: 23%.
With `COc1cc(OC)c2c(-c3cccc(-c4ccc(OC(F)(F)F)cc4)c3)cc(=O)oc2c1` the CPE inhibition was inconclusive: 51.7%.
With `O=C(COc1ccc([N+](=O)[O-])cc1)Nc1cccc2nsnc12` the CPE inhibition was inconclusive: 34.2%.
For `COCC#Cc1ccc([C@@H]2[C@H]3CN(S(=O)(=O)c4ccccc4F)CCCCN3[C@H]2CO)cc1`, the CPE inhibition was active: 32.7%.
For `COc1ccc2c3c(n(C)c2c1)[C@H](CO)N(C)CC31CCN(C(=O)CN2CCOCC2)CC1`, the CPE inhibition was active: 52.9%.
With `COc1ccc(OC)c(NC(=O)c2ccc3c(c2)OCO3)c1` the CPE inhibition was inconclusive: 41.3%.
For `CNC(=O)C1CCN(S(=O)(=O)c2c(C)noc2/C=C/c2ccccc2F)CC1`, the CPE inhibition was inconclusive: 50.6%.
In the case of `O=C(NCCc1csc(-c2cccnc2)n1)c1cccs1`, the CPE inhibition is reported as inconclusive: 22%.
In the case of `CC(C)(C)c1ccc(COC(=O)CN2C(=O)NC3(CCCC3)C2=O)cc1`, the CPE inhibition is reported as inconclusive: 26.7%.
For `NS(=O)(=O)c1ccc(CCNC(=O)C2CCN(S(=O)(=O)c3ccc(Br)s3)CC2)cc1`, the CPE inhibition was inconclusive: 25.1%.
In the case of `COc1ccc(NC(=O)N2C3CCCC2CC(NC(=O)c2ccccc2)C3)cc1` (centres undefined), the CPE inhibition is reported as inconclusive: 22.1%.
For `Cc1ccc(C)c(OCC(=O)N(Cc2nnc(-c3ccccc3Cl)o2)C2CC2)c1`, the CPE inhibition was inconclusive: 27.4%.
For `O=C(CC1CC1)Nc1ccc2c(c1)[C@@H]1C[C@@H](CC(=O)NC3CCCC3)O[C@@H](CO)[C@@H]1O2`, the CPE inhibition was inactive: -5.9%.
For `CCOC(=O)[C@H]1[C@H]2COc3ccc(OC)cc3[C@H]2N2C(=O)CN(Cc3ccccc3)C(=O)[C@@]12C`, the CPE inhibition was inactive: 19%.
For `O=C(Nc1ccc(F)cc1)N1CC(=O)N2[C@H](C1)[C@H](c1ccc(Br)cc1)[C@@H]2CO`, the CPE inhibition was inactive: 11.9%.
In the case of `CC1CCN(C(=O)COC(=O)c2cc3ccccc3oc2=O)CC1`, the CPE inhibition is reported as active: 54.1%.
In the case of `N#Cc1nc(-c2ccccc2F)oc1NCc1ccccc1`, the CPE inhibition is reported as inconclusive: 21.7%.
With `COc1ccc(S(=O)(=O)N2C[C@@H](O)COC[C@@H]3O[C@H](CC(=O)NCCCN4CCOCC4)CC[C@H]32)cc1` the CPE inhibition was inconclusive: 54.9%.
For `C[C@H](CO)N1C[C@H](C)[C@@H](CN(C)C)Oc2ccc(NS(=O)(=O)c3ccccc3)cc2CC1=O`, the CPE inhibition was inactive: -2.9%.
In the case of `O=C(CNS(=O)(=O)c1ccccc1)N/N=C/c1ccc(O)cc1`, the CPE inhibition is reported as inactive: 7.56%.
For `CN(Cc1ccccc1)C(=O)c1ccc(NC(=O)Cc2ccc(NC(=O)C3CCN(C(=O)CCc4ccccc4)CC3)cc2)cc1`, the CPE inhibition was inconclusive: 66.5%.
In the case of `C[C@@H]1CN([C@H](C)CO)C(=O)Cc2cc(NS(=O)(=O)c3cccs3)ccc2O[C@@H]1CN(C)Cc1ccc(-c2ccccc2)cc1`, the CPE inhibition is reported as inconclusive: 26.5%.
In the case of `CO[C@@H]1CN(C)C(=O)c2ccc(NC(=O)C3CC3)cc2OC[C@H](C)N(C(=O)NC(C)C)C[C@@H]1C`, the CPE inhibition is reported as inactive: -2.85%.
In the case of `C[C@H]1CN([C@@H](C)CO)S(=O)(=O)c2ccc(/C=C/c3ccccc3)cc2O[C@H]1CN(C)C(=O)c1ccccc1`, the CPE inhibition is reported as inconclusive: 31.8%.
For `C[C@@H]1CN([C@H](C)CO)C(=O)c2cccc(NC(=O)C3CCCCC3)c2O[C@@H]1CN(C)C(=O)Nc1cccc2ccccc12`, the CPE inhibition was inconclusive: 40%.
In the case of `COc1cccc(NC(=O)N[C@H]2CC[C@H](CC(=O)NCc3ccncn3)O[C@@H]2CO)c1`, the CPE inhibition is reported as inconclusive: 21.3%.
For `CN1c2ccc(C3=CCCCC3)cc2[C@@H]2[C@@H](CCN2C(=O)NC2CCCC2)[C@H]1CO`, the CPE inhibition was inconclusive: 69.7%.
With `COc1ccc(S(=O)(=O)CC(=O)Nc2nnc(C(F)(F)F)s2)cc1` the CPE inhibition was inconclusive: 65.3%.
For `COc1ccc(S(=O)(=O)Nc2cccc3c2O[C@@H](CN(C)S(=O)(=O)c2ccccc2)[C@@H](C)CN([C@@H](C)CO)C3=O)cc1`, the CPE inhibition was inconclusive: 75.8%.
For `Cc1ccc(S(=O)(=O)N(C)C[C@H]2Oc3c(NC(=O)Nc4ccc(C(F)(F)F)cc4)cccc3C(=O)N([C@H](C)CO)C[C@@H]2C)cc1`, the CPE inhibition was inconclusive: 37.2%.
